Source: the supplement of paper PMC8728848
The list shows a part of the results.

Tests used:
Test in all cases: glycan array binding signal (z-score within array); higher = stronger binding
Details in all cases: glycan notation: IUPAC condensed, linker removed
[1] = target: Gal(b1-3)GlcNAc(b1-3)Gal(b1-4)GlcNAc(b1-2)[Gal(b1-3)GlcNAc(b1-3)Gal(b1-4)GlcNAc(b1-6)]Man(a1-6)[Gal(b1-3)GlcNAc(b1-3)Gal(b1-4)GlcNAc(b1-2)Man(a1-3)]Man(b1-4)GlcNAc(b1-4)[Fuc(a1-6)]GlcNAc
Method in brief: (§1)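 Columns mapping to the same glycan were averaged after glycan names were converted to IUPAC-condensed notation. The data come from 3228 arrays in the Consortium for Functional Glycomics database, limited to those with an available protein sequence. Binding is reported as a within-array Z-score averaged across arrays of one protein sequence and across linkers.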

[2] = target: Gal(b1-3)GlcNAc(b1-3)Gal(b1-4)GlcNAc(b1-3)Gal(b1-4)GlcNAc(b1-2)[Gal(b1-3)GlcNAc(b1-3)Gal(b1-4)GlcNAc(b1-3)Gal(b1-4)GlcNAc(b1-6)]Man(a1-6)[Gal(b1-3)GlcNAc(b1-3)Gal(b1-4)GlcNAc(b1-3)Gal(b1-4)GlcNAc(b1-2)Man(a1-3)]Man(b1-4)GlcNAc(b1-4)[Fuc(a1-6)]GlcNAc
Method in brief: as §1

[3] = target: Gal(b1-3)GlcNAc(b1-3)Gal(b1-4)GlcNAc(b1-6)[Gal(b1-3)GlcNAc(b1-3)]Gal(b1-4)Glc
Method in brief: as §1

[4] = target: Gal(b1-3)GlcNAc(b1-3)Gal(b1-4)[Fuc(a1-3)]GlcNAc(b1-6)[Gal(b1-3)GlcNAc(b1-3)]Gal(b1-4)Glc
Method in brief: as §1

[5] = target: Gal(b1-3)GlcNAc(b1-3)GalNAc
Method in brief: as §1

[6] = target: Gal(b1-3)GlcNAc(b1-6)Gal(b1-4)GlcNAc
Method in brief: as §1

[7] = target: Gal(b1-3)GlcNAc(b1-6)GalNAc
Method in brief: as §1

[8] = target: Gal(b1-3)GlcNAc(b1-6)[Gal(b1-3)]GalNAc
Method in brief: as §1

[9] = target: Gal(b1-3)GlcNAc6S
Method in brief: as §1

[10] = target: Gal(b1-3)[Fuc(a1-4)]GlcNAc
Method in brief: as §1

[11] = target: Gal(b1-3)[Fuc(a1-4)]GlcNAc(b1-2)Man
Method in brief: as §1

[12] = target: Gal(b1-3)[Fuc(a1-4)]GlcNAc(b1-2)Man(a1-3)[Gal(b1-3)[Fuc(a1-4)]GlcNAc(b1-2)Man(a1-6)]Man(b1-4)GlcNAc(b1-4)[Fuc(a1-6)]GlcNAc
Method in brief: as §1

[13] = target: Gal(b1-3)[Fuc(a1-4)]GlcNAc(b1-3)Gal(b1-3)[Fuc(a1-4)]GlcNAc
Method in brief: as §1

[14] = target: Gal(b1-3)[Fuc(a1-4)]GlcNAc(b1-3)Gal(b1-4)GlcNAc
Method in brief: as §1

[15] = target: Gal(b1-3)[Fuc(a1-4)]GlcNAc(b1-3)Gal(b1-4)[Fuc(a1-3)]GlcNAc
Method in brief: as §1

[16] = target: Gal(b1-3)[Fuc(a1-4)]GlcNAc(b1-6)GalNAc
Method in brief: as §1

[17] = target: Gal(b1-3)[GlcNAc(b1-6)]GalNAc
Method in brief: as §1

[18] = target: Gal(b1-3)[Neu5Ac(a2-6)]GalNAc
Method in brief: as §1

[19] = target: Gal(b1-3)[Neu5Ac(a2-6)]GlcNAc(b1-4)Gal(b1-4)Glc
Method in brief: as §1

[20] = target: Gal(b1-3)[Neu5Ac(b2-6)]GalNAc
Method in brief: as §1

[21] = target: Gal(b1-4)Gal
Method in brief: as §1

[22] = target: Gal(b1-4)GalNAc(a1-3)[Fuc(a1-2)]Gal(b1-4)GlcNAc
Method in brief: as §1

[23] = target: Gal(b1-4)GalNAc(b1-3)[Fuc(a1-2)]Gal(b1-4)GlcNAc
Method in brief: as §1

[24] = target: Gal(b1-4)Glc
Method in brief: as §1

[25] = target: Gal(b1-4)Glc6S
Method in brief: as §1

[26] = target: Gal(b1-4)GlcNAc
Method in brief: as §1

[27] = target: Gal(b1-4)GlcNAc(a1-6)Gal(b1-4)GlcNAc
Method in brief: as §1

[28] = target: Gal(b1-4)GlcNAc(b1-2)Man
Method in brief: as §1

[29] = target: Gal(b1-4)GlcNAc(b1-2)Man(a1-3)Man(b1-4)GlcNAc(b1-4)GlcNAc
Method in brief: as §1

[30] = target: Gal(b1-4)GlcNAc(b1-2)Man(a1-3)[Gal(b1-4)GlcNAc(b1-2)Man(a1-6)]Man(b1-4)GlcNAc(b1-4)GlcNAc
Method in brief: as §1

[31] = target: Gal(b1-4)GlcNAc(b1-2)Man(a1-3)[Gal(b1-4)GlcNAc(b1-2)Man(a1-6)]Man(b1-4)GlcNAc(b1-4)[Fuc(a1-6)]GlcNAc
Method in brief: as §1

[32] = target: Gal(b1-4)GlcNAc(b1-2)Man(a1-3)[Gal(b1-4)GlcNAc(b1-2)Man(a1-6)][Gal(b1-4)GlcNAc(b1-4)]Man(b1-4)GlcNAc(b1-4)[Fuc(a1-6)]GlcNAc
Method in brief: as §1

[33] = target: Gal(b1-4)GlcNAc(b1-2)Man(a1-3)[Gal(b1-4)GlcNAc(b1-2)Man(a1-6)][GlcNAc(b1-4)]Man(b1-4)GlcNAc(b1-4)[Fuc(a1-6)]GlcNAc
Method in brief: as §1

[34] = target: Gal(b1-4)GlcNAc(b1-2)Man(a1-3)[GlcNAc(b1-2)Man(a1-6)]Man(b1-4)GlcNAc(b1-4)GlcNAc
Method in brief: as §1

[35] = target: Gal(b1-4)GlcNAc(b1-2)Man(a1-3)[GlcNAc(b1-4)][Gal(b1-4)GlcNAc(b1-2)Man(a1-6)]Man(b1-4)GlcNAc(b1-4)GlcNAc
Method in brief: as §1

[36] = target: Gal(b1-4)GlcNAc(b1-2)Man(a1-3)[Man(a1-6)]Man(b1-4)GlcNAc(b1-4)GlcNAc
Method in brief: as §1

[37] = target: Gal(b1-4)GlcNAc(b1-2)Man(a1-6)Man(b1-4)GlcNAc(b1-4)GlcNAc
Method in brief: as §1

[38] = target: Gal(b1-4)GlcNAc(b1-2)Man(a1-6)[GlcNAc(b1-2)Man(a1-3)]Man(b1-4)GlcNAc(b1-4)GlcNAc
Method in brief: as §1

B1: SfaEH (Escherichia coli), Q1RDG5 (protein)
chain: LLCRNNQTGQVFNSGDTSFRVNVSPVVQYDKSISVLDLSQLVSCQNEDSTGQNYDYLKILKGSGFSPALDTKTYGRLDFTSRPTGYARQLPLQFDLQVTEAFYQYGVWKPFPAKLYLYPAPGVFGKVINNGDLLATLYVNKFSTKGQEAGERNFTWRFYATNDVYIQTGTCRVSSNNVKVDLPSYPGGPVTVPLTVRCDQTQSVSYTLSGPVTGSGNTVFANTAASGSGGVGIQLSDNVGPVPAGQPRSLGQVGSSPVSLGLKASYALTGQASPTPGAVQSVINVTFSYN
glycan array binding signal (z-score) [1]: 0.27
glycan array binding signal (z-score) [2]: 3.4
glycan array binding signal (z-score) [3]: -0.77
glycan array binding signal (z-score) [4]: 0.378
glycan array binding signal (z-score) [5]: 0.787
glycan array binding signal (z-score) [6]: 0.147
glycan array binding signal (z-score) [7]: -0.438
glycan array binding signal (z-score) [8]: 1.44
glycan array binding signal (z-score) [9]: 0.226
glycan array binding signal (z-score) [10]: -0.004
glycan array binding signal (z-score) [11]: 1.04
glycan array binding signal (z-score) [12]: 0.032
glycan array binding signal (z-score) [13]: 0.274
glycan array binding signal (z-score) [14]: -0.081
glycan array binding signal (z-score) [15]: 0.574
glycan array binding signal (z-score) [16]: -0.677
glycan array binding signal (z-score) [17]: -0.022
glycan array binding signal (z-score) [18]: -0.563
glycan array binding signal (z-score) [19]: -0.638
glycan array binding signal (z-score) [20]: -0.841
glycan array binding signal (z-score) [21]: -0.186
glycan array binding signal (z-score) [22]: -0.343
glycan array binding signal (z-score) [23]: 0.535
glycan array binding signal (z-score) [24]: -0.376
glycan array binding signal (z-score) [25]: 0.117
glycan array binding signal (z-score) [26]: -0.108
glycan array binding signal (z-score) [27]: -0.177
glycan array binding signal (z-score) [28]: -0.666
glycan array binding signal (z-score) [29]: -0.607
glycan array binding signal (z-score) [30]: 0.902
glycan array binding signal (z-score) [31]: 0.956
glycan array binding signal (z-score) [32]: -0.358
glycan array binding signal (z-score) [33]: -0.692
glycan array binding signal (z-score) [34]: -0.661
glycan array binding signal (z-score) [35]: -0.421
glycan array binding signal (z-score) [36]: -0.294
glycan array binding signal (z-score) [37]: -0.268
glycan array binding signal (z-score) [38]: -0.795
